Data reported in patent US10668040B2, “Treatment of urea cycle disorders in neonates and infants” (Horizon Therapeutics, LLC, priority 2017, dated 2020).

Columns and labels:
[1] = tested on: UCD patients; test: HPN-100-009 (Example 2): amino acid assessment; assay type: in vivo, human; details: Age 2 Months to <2 Years
[2] = tested on: UCD patients; test: Example 3: amino acids baseline and change from baseline up to Month 24; assay type: in vivo, human; details: Age 0 to <2 months

O=C(CCCc1ccccc1)OCC(COC(=O)CCCc1ccccc1)OC(=O)CCCc1ccccc1 [RAVICTI, benzenebutanoic acid, 1′,1″-(1,2,3-propanetriyl) ester]
Glutamate, Change from Baseline at Day 7 [1]: −54.5 (±92.63) μmol/L
Glutamate, Change from Baseline at Month 2 [1]: 7.8 (±25.65) μmol/L
Glutamate, Change from Baseline at Month 3 [1]: 2 (±32.53) μmol/L
Glutamate, Change from Baseline at Month 4 [1]: −32.7 (±5.51) μmol/L
Glutamate, Change from Baseline at Month 5 [1]: −10 (±n/a)^c μmol/L
Glutamate, Change from Baseline at Month 6 [1]: −3.3 (±48.69) μmol/L
Glutamate, Change from Baseline at Month 9 [1]: −23 (±n/a)^c μmol/L
Glutamine, Change from Baseline at Day 7 [1]: −184.3 (±168.66) μmol/L
Glutamine, Change from Baseline at Month 2 [1]: −174.6 (±318.25) μmol/L
Glutamine, Change from Baseline at Month 3 [1]: −134.5 (±136.47) μmol/L
Glutamine, Change from Baseline at Month 4 [1]: −292 (±384.81) μmol/L
Glutamine, Change from Baseline at Month 5 [1]: −240 (±n/a)^c μmol/L
Glutamine, Change from Baseline at Month 6 [1]: −114.7 (±734.14) μmol/L
Glutamine, Change from Baseline at Month 9 [1]: −859 (±n/a)^c μmol/L
Isoleucine, Change from Baseline at Day 7 [1]: 2.7 (±19.16) μmol/L
Isoleucine, Change from Baseline at Month 2 [1]: 4.2 (±45.86) μmol/L
Isoleucine, Change from Baseline at Month 3 [1]: −30.5 (±20.51) μmol/L
Isoleucine, Change from Baseline at Month 4 [1]: −12.7 (±16.62) μmol/L
Isoleucine, Change from Baseline at Month 5 [1]: −19 (±n/a)^c μmol/L
Isoleucine, Change from Baseline at Month 6 [1]: −20.7 (±9.07) μmol/L
Isoleucine, Change from Baseline at Month 9 [1]: 8 (±n/a)^c μmol/L
Leucine, Change from Baseline at Day 7 [1]: −0.8 (±32.76) μmol/L
Leucine, Change from Baseline at Month 2 [1]: 9.8 (±65.97) μmol/L
Leucine, Change from Baseline at Month 3 [1]: −35 (±35.36) μmol/L
Leucine, Change from Baseline at Month 4 [1]: −21.7 (±19.22) μmol/L
Leucine, Change from Baseline at Month 5 [1]: −32 (±n/a)^c μmol/L
Leucine, Change from Baseline at Month 6 [1]: −30.3 (±11.59) μmol/L
Leucine, Change from Baseline at Month 9 [1]: −26 (±n/a)^c μmol/L
Sum of Glutamate and Glutamine, Change from Baseline at Day 7 [1]: −238.8 (±203.57) μmol/L
Sum of Glutamate and Glutamine, Change from Baseline at Month 2 [1]: −166.8 (±332.42) μmol/L
Sum of Glutamate and Glutamine, Change from Baseline at Month 3 [1]: −132.5 (±169) μmol/L
Sum of Glutamate and Glutamine, Change from Baseline at Month 4 [1]: −324.7 (±389.32) μmol/L
Sum of Glutamate and Glutamine, Change from Baseline at Month 5 [1]: −250 (±n/a)^c μmol/L
Sum of Glutamate and Glutamine, Change from Baseline at Month 6 [1]: −118 (±772.5) μmol/L
Sum of Glutamate and Glutamine, Change from Baseline at Month 9 [1]: −836 (±n/a)^c μmol/L
Valine, Change from Baseline at Day 7 [1]: 4 (±24.13) μmol/L
Valine, Change from Baseline at Month 2 [1]: 40.6 (±90.06) μmol/L
Valine, Change from Baseline at Month 3 [1]: −45.5 (±27.58) μmol/L
Valine, Change from Baseline at Month 4 [1]: −17 (±8.19) μmol/L
Valine, Change from Baseline at Month 5 [1]: −29 (±n/a)^c μmol/L
Valine, Change from Baseline at Month 6 [1]: −33.7 (±10.21) μmol/L
Valine, Change from Baseline at Month 9 [1]: 70 (±n/a)^c μmol/L
Glutamate change from baseline ([2]; Day 7): 26.81 (±76.417); μmol/L
Glutamine change from baseline ([2]; Day 7): 21.04 (±260.500); μmol/L
Isoleucine change from baseline ([2]; Day 7): −49.09 (±198.730); μmol/L
Leucine change from baseline ([2]; Day 7): −81.91 (±273.127); μmol/L
Sum of glutamine and glutamate change from baseline ([2]; Day 7): 47.85 (±230.343); μmol/L
Valine change from baseline ([2]; Day 7): −63.96 (±290.312); μmol/L
Glutamate change from baseline ([2]; Month 2): 25.16 (±64.474); μmol/L
Glutamine change from baseline ([2]; Month 2): −27.62 (±379.796); μmol/L
Isoleucine change from baseline ([2]; Month 2): −1.62 (±233.754); μmol/L
Leucine change from baseline ([2]; Month 2): −60.80 (±278.083); μmol/L
Sum of glutamine and glutamate change from baseline ([2]; Month 2): −2.46 (±402.919); μmol/L
Valine change from baseline ([2]; Month 2): −39.04 (±297.634); μmol/L
Glutamate change from baseline ([2]; Month 3): 50.05 (±73.988); μmol/L
Glutamine change from baseline ([2]; Month 3): −15.09 (±352.471); μmol/L
Isoleucine change from baseline ([2]; Month 3): −20.46 (±216.885); μmol/L
Leucine change from baseline ([2]; Month 3): −51.66 (±269.558); μmol/L
Sum of glutamine and glutamate change from baseline ([2]; Month 3): 34.96 (±371.522); μmol/L
Valine change from baseline ([2]; Month 3): −23.86 (±290.128); μmol/L
Glutamate change from baseline ([2]; Month 4): 18.77 (±67.561); μmol/L
Glutamine change from baseline ([2]; Month 4): −113.98 (±230.855); μmol/L
Isoleucine change from baseline ([2]; Month 4): −67.32 (±173.564); μmol/L
Leucine change from baseline ([2]; Month 4): −82.82 (±224.269); μmol/L
Sum of glutamine and glutamate change from baseline ([2]; Month 4): −95.21 (±238.136); μmol/L
Valine change from baseline ([2]; Month 4): −74.41 (±233.538); μmol/L
Glutamate change from baseline ([2]; Month 5): 57.43 (±98.550); μmol/L
Glutamine change from baseline ([2]; Month 5): −99.82 (±305.674); μmol/L
Isoleucine change from baseline ([2]; Month 5): −75.45 (±221.845); μmol/L
Leucine change from baseline ([2]; Month 5): −118.55 (±311.125); μmol/L
Sum of glutamine and glutamate change from baseline ([2]; Month 5): −42.39 (±288.782); μmol/L
Valine change from baseline ([2]; Month 5): −98.67 (±326.300); μmol/L
Glutamate change from baseline ([2]; Month 6): 43.65 (±140.985); μmol/L
Glutamine change from baseline ([2]; Month 6): −138.16 (±349.269); μmol/L
Isoleucine change from baseline ([2]; Month 6): −35.94 (±78.367); μmol/L
Leucine change from baseline ([2]; Month 6): −11.85 (±40.693); μmol/L
Sum of glutamine and glutamate change from baseline ([2]; Month 6): −94.51 (±297.378); μmol/L
Valine change from baseline ([2]; Month 6): 2.64 (±77.843); μmol/L
Glutamate change from baseline ([2]; Month 9): 33.41 (±150.273); μmol/L
Glutamine change from baseline ([2]; Month 9): −56.08 (±269.288); μmol/L
Isoleucine change from baseline ([2]; Month 9): −73.09 (±245.051); μmol/L
Leucine change from baseline ([2]; Month 9): −115.09 (±338.186); μmol/L
Sum of glutamine and glutamate change from baseline ([2]; Month 9): −22.66 (±318.034); μmol/L
Valine change from baseline ([2]; Month 9): −90.40 (±355.316); μmol/L

Some results come without the dose or concentration used. Marks after values point to notes of the source that are not given here.
